Listed are the inconclusive results; actives and inactives stand elsewhere. Unless noted, the call rests on the fitted dose curve; in most records, active means well fitted curve in the direction sought with a large enough effect; inconclusive means small, poorly fitted or top-dose-only effect, or another doubt; inactive means no such curve, though single readings can be large; an effect the other way counts as inactive or inconclusive.
Columns and labels:
[1] = biological target: Estrogen receptor (Homo sapiens) (UniProt P03372); experiment: qHTS assay for small molecule antagonists of estrogen receptor alpha signaling (AID 588513; active means well fitted curve in the direction sought with a large enough effect in the signal ratio, with a control signal flat, not every such curve was filed as active; inconclusive means small, poorly fitted or top-dose-only effect, or effect the other way, or a change in a side signal; inactive means no such curve, though single readings can be large or run the other way; the % refers to the signal ratio; further: on the % scale 0 is the no-effect control and ±100 the full control effect); settings: ER-alpha-UAS-bla HEK293, beta-lactamase ratio, antagonist mode; at 76.9 µM (top of the series)
[2] = biological target: Peroxisome proliferator-activated receptor gamma (Homo sapiens) (UniProt P37231); experiment: qHTS assay for small molecule agonists of peroxisome proliferator-activated receptor gamma signaling (AID 588536; active means well fitted curve in the direction sought with a large enough effect in the signal ratio, with a control signal flat, not every such curve was filed as active; inconclusive means small, poorly fitted or top-dose-only effect, or effect the other way, or a change in a side signal; inactive means no such curve, though single readings can be large or run the other way; the % refers to the signal ratio;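 further: 0% = DMSO basal wells and 100% = rosiglitazone at 2 µM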); settings: HEK293 PPARg-UAS-bla, beta-lactamase ratio, 16 h; activation: at 76.7 µM (top of the series), percent of rosiglitazone response, DMSO as zero
Procedure, shortened: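 Beta-lactamase reporter read-out: CCF4 fluorescence (ex 405, em 460/530 nm) after 2 h at RT. HEK293 GeneBLAzer cells were treated for 16 h at 37 C. Hill fits gave EC50 and efficacy versus 2 uM rosiglitazone (100%) and DMSO (0%).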

The chains behind the UniProt entries cited, without tags or fusion partners. Residues count along the entry.
UniProt P10828, whole entry: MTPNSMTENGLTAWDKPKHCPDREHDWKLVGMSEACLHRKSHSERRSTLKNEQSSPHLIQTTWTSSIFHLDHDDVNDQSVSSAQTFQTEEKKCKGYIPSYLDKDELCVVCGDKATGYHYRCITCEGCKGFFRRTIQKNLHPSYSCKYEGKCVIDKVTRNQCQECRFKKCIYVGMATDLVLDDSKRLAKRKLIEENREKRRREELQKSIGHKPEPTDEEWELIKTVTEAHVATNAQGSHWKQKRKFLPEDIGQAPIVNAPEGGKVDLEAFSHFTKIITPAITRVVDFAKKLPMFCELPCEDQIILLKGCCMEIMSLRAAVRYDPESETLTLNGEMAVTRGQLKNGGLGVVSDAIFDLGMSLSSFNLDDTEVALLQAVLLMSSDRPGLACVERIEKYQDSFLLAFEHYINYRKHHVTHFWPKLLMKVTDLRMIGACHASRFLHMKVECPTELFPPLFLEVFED
UniProt Q27686, 2-499 E452W limits assumed: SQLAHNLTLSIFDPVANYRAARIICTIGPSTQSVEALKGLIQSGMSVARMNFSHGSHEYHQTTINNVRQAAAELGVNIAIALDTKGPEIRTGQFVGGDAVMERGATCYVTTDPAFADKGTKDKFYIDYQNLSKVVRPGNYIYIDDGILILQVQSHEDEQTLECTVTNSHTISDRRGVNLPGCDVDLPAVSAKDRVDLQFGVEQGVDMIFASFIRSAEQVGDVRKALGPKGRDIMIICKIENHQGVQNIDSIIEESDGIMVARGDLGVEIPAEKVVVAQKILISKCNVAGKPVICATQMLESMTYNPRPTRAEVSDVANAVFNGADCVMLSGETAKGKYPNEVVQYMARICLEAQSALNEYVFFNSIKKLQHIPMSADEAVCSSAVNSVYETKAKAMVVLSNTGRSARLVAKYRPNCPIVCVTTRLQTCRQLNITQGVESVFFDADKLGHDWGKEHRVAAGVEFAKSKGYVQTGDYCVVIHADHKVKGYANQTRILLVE
UniProt P54132, whole entry: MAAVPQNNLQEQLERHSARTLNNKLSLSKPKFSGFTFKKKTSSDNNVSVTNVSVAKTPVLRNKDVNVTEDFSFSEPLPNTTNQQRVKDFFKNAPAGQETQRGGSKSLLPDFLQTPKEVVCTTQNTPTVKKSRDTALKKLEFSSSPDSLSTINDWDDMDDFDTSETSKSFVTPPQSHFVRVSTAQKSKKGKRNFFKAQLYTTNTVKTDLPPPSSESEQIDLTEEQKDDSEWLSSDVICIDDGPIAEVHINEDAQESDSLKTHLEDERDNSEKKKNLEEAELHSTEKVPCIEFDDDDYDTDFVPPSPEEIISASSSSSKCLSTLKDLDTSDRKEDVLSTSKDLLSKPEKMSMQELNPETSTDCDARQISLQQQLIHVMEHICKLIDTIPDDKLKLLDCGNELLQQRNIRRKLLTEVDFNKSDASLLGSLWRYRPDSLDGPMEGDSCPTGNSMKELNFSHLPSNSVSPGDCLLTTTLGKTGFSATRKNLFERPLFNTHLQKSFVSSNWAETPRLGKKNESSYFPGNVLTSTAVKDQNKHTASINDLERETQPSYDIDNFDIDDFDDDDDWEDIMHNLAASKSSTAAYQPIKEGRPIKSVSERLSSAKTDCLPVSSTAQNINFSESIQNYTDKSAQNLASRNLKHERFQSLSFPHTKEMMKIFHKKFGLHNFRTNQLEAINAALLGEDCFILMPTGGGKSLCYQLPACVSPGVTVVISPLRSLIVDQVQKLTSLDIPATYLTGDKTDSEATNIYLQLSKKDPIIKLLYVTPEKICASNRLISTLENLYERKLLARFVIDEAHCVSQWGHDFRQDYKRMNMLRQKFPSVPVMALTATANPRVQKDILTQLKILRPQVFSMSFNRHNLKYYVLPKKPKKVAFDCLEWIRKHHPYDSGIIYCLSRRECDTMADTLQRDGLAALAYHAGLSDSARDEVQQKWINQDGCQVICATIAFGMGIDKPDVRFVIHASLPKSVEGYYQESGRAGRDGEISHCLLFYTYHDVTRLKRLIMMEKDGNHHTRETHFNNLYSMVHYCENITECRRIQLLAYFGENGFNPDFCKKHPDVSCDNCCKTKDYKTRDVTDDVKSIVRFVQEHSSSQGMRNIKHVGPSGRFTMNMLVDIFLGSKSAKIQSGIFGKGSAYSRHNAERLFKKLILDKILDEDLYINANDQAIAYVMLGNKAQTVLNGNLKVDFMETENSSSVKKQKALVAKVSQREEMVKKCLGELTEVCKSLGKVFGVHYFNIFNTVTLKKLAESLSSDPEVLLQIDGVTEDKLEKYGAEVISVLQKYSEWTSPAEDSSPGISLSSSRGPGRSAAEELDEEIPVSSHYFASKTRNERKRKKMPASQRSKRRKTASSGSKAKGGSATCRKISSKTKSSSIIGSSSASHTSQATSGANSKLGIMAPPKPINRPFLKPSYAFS
UniProt O15648, whole entry: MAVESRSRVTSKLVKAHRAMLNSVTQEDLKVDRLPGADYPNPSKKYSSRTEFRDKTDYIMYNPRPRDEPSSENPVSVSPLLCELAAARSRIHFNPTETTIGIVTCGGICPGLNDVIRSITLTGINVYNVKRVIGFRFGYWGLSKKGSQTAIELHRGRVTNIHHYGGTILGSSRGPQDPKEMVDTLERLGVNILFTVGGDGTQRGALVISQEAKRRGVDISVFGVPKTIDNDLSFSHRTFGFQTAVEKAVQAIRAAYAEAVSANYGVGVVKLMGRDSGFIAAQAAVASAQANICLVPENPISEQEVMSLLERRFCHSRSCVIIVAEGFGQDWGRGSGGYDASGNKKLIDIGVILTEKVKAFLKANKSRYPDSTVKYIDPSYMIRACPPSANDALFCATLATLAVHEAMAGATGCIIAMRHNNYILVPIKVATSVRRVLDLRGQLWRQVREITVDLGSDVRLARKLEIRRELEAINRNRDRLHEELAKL
UniProt O89049, whole entry: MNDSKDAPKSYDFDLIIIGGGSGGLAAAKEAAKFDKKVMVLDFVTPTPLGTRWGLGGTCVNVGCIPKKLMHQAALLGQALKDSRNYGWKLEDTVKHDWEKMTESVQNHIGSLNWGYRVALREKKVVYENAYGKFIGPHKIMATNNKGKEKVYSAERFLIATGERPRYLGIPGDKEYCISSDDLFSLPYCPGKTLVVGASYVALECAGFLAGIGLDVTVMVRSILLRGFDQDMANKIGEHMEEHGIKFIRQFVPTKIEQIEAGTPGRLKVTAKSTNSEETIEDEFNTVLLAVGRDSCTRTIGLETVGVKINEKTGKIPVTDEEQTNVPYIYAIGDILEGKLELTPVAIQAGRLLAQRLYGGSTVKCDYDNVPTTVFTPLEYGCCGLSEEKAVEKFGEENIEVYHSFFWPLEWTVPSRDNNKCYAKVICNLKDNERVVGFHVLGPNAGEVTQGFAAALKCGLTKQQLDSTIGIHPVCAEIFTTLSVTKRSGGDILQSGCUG
UniProt P39748, whole entry: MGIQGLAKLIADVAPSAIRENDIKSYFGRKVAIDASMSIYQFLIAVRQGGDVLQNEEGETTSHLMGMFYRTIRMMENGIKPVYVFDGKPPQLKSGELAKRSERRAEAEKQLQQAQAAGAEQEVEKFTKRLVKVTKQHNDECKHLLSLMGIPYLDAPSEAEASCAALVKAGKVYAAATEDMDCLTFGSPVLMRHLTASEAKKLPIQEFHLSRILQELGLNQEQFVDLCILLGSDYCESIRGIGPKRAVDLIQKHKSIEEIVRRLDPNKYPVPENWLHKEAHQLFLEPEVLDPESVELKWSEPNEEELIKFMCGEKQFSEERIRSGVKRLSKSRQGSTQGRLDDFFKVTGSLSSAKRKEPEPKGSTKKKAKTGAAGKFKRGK
UniProt Q13526, whole entry: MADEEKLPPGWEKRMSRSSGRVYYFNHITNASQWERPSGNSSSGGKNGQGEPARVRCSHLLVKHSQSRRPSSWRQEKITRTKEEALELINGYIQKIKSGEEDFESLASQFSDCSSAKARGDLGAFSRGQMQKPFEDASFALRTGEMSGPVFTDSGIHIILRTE
UniProt P08659, whole entry: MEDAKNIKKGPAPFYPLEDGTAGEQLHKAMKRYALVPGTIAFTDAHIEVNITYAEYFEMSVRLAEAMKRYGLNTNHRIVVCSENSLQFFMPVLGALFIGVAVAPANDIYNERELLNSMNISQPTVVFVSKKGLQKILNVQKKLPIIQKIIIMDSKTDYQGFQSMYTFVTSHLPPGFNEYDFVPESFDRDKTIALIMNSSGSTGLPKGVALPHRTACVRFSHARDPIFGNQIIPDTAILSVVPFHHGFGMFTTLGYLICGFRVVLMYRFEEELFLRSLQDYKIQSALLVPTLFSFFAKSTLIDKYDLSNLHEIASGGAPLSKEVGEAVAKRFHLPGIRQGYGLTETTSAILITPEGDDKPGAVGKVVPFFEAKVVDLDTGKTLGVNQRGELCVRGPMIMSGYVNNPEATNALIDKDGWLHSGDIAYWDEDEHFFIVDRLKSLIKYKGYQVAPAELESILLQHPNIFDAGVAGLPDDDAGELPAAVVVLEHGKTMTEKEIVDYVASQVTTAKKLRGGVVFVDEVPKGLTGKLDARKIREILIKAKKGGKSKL
UniProt P15289, whole entry: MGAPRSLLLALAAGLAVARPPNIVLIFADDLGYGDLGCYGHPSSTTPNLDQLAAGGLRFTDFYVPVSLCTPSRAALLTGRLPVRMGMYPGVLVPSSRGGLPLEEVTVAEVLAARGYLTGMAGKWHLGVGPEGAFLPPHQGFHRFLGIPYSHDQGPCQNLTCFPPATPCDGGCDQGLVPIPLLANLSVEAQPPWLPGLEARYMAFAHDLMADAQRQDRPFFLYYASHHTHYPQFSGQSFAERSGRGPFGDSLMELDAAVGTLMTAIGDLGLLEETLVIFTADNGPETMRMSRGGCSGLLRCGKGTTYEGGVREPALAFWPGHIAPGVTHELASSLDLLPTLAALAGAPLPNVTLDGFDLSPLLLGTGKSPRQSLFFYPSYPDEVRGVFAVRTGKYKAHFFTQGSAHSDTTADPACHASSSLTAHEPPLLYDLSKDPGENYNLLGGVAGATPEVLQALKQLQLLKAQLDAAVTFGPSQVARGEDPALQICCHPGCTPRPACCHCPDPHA

[3] = biological target: Thyroid hormone receptor beta (Homo sapiens) (UniProt P10828); experiment: qHTS assay for small molecule agonists of thyroid hormone receptor beta signaling (AID 588545; calls by dose curve; further: potency means the concentration at half of the fitted maximal effect); settings: TR-UAS-bla GripTite HEK 293, beta-lactamase ratio, agonist mode, 18 h
Procedure, shortened: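 HEK 293 TR-UAS-bla; agonist mode; 18 hrs, 37 C; CCF4, ex 405/em 460 and 530 nm; norm. T3 10 nM = 100%, DMSO = 0%; Hill fit → EC50, efficacy.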

[4] = qHTS assay for small molecule agonists of the antioxidant response element (ARE) signaling pathway (AID 651741; active means well fitted activation curve with a large enough effect in the signal ratio; inconclusive means small, poorly fitted or top-dose-only effect, or effect the other way, or a change in a side signal; the % refers to the signal ratio; further: potency means the concentration at half of the fitted maximal effect); settings: HepG2 ARE-bla reporter, beta-lactamase FRET ratio, 16 h; activation: at 96 µM (top of the series)
Procedure, shortened: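 Beta-lactamase reporter expression driven by the antioxidant response element in HepG2 cells was detected by fluorescence with LiveBLAzer B/G FRET substrate (2 h, room temperature) following 16 h compound treatment at 37 C.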

[5] = qHTS Assay for Identification of Small Molecule Agonists for Thrombopoietin (TPO) Signaling Pathway (AID 917); settings: TPO signaling pathway reporter cells, agonist qHTS; stimulated with TPO at its EC50; further: potency means the concentration at half of the fitted maximal effect
[6] = biological target: Pyruvate kinase (Leishmania mexicana) (UniProt Q27686); experiment: qHTS Validation Assay for Activators of Leishmania Mexicana Pyruvate Kinase (AID 959); settings: purified L. mexicana pyruvate kinase, enzyme activity
Procedure, shortened: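 Pyruvate kinase activity of E451W LmPYK (0.2 nM) was followed as ATP output after 1 h at room temperature with 0.5 mM PEP and 0.1 mM ADP, detected by PKLight luminescence.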

[7] = Counterscreen for APE1 Inhibitors: Fluorescent Dye Displacement Validation Assay (AID 1707); settings: fluorescent dye displacement from DNA; further: potency means the concentration at half of the fitted maximal effect
Procedure, shortened: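 Endpoint fluorescence read at 480 nm excitation / 540 nm emission; DNA-binding compounds lower signal by displacing 250 nM Thiazole Orange from 50 nM dsDNA containing a tetrahydrofuran abasic site, Tris-HCl pH7.5 buffer with NaCl and MgCl2.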

[8] = biological target: RecQ-like DNA helicase BLM (Homo sapiens) (UniProt P54132); experiment: qHTS Validation Assay for Inhibitors of Bloom's syndrome helicase (BLM) (AID 2364); settings: BLM helicase DNA unwinding, fluorescence, in vitro; further: potency means the concentration at half of the fitted maximal effect
[9] = biological target: ATP-dependent 6-phosphofructokinase (Trypanosoma brucei brucei) (UniProt O15648); experiment: qHTS Validation Assay to Find Inhibitors of T. brucei phosphofructokinase (AID 485368); further: potency means the concentration at half of the fitted maximal effect; settings: T. brucei PFK enzyme assay, qHTS 7-point titration
[10] = Quantitative high throughput screen for delayed death inhibitors of the malarial parasite plastid, 96 hour incubation (AID 488745); settings: Plasmodium falciparum growth; further: potency means the concentration at half of the fitted maximal effect; nearly all actives have a fitted effect of over 70% in size
Procedure, shortened: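 Two-generation (96 h) exposure of luciferase-reporter P. falciparum in erythrocytes, 2% hematocrit, 0.1% parasitemia final, 37 C, 5% CO2, RPMI 1640 with 0.5% Albumax. Growth inhibition scored by reduced luminescence.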

[11] = Quantitative high throughput screen for delayed death inhibitors of the malarial parasite plastid, 48 hour incubation (AID 488752); settings: Plasmodium falciparum growth; further: potency means the concentration at half of the fitted maximal effect; nearly all actives have a fitted effect of over 65% in size
Procedure, shortened: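 Cultures: infected erythrocytes at final 2% hematocrit and 0.1% parasitemia in Albumax-supplemented RPMI. Parasites express integrated firefly luciferase. Incubation with compound lasts 48 h before luminescent detection of remaining reporter activity.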

[12] = biological target: Thioredoxin reductase 1, cytoplasmic (Rattus norvegicus) (UniProt O89049); experiment: qHTS Assay for Inhibitors of Mammalian Selenoprotein Thioredoxin Reductase 1 (TrxR1) (AID 488773); settings: purified TrxR1 enzyme activity, inhibition; further: potency means the concentration at half of the fitted maximal effect; nearly all actives have a fitted effect of over 40% in size
Procedure, shortened: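 Inhibition is scored from the loss of NADPH fluorescence between first and last reads of an 8-min kinetic run. Selenite (400 uM) was the substrate, added after 15 min compound preincubation at room temperature.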

[13] = biological target: Flap endonuclease 1 (Homo sapiens) (UniProt P39748); experiment: qHTS Validation Assay for the Inhibitors of Human Flap endonuclease 1 (FEN1) (AID 488816); settings: FEN1 nuclease activity, fluorogenic DNA substrate; further: potency means the concentration at half of the fitted maximal effect
Procedure, shortened: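 Steps: add FEN1 (10 nM reagent) or buffer only; pin compounds; hold 15 min at room temperature; start with substrate, 50 nM final; read at 0 and 15 min; correct, normalize and fit a four-parameter Hill curve.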

[14] = biological target: ATP-dependent 6-phosphofructokinase (Trypanosoma brucei brucei) (UniProt O15648); experiment: qHTS Assay to Find Inhibitors of T. brucei phosphofructokinase: hit validation (AID 492961); further: potency means the concentration at half of the fitted maximal effect; settings: T. brucei PFK, ADP-Glo luminescence
Procedure, shortened: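 Percent activity derived from corrected luminescence, normalized between 0x and 1x enzyme controls, then fitted to concentration-response curves. Conditions: 1.25 nM PFK, 0.1 mM ATP, 0.5 mM F6P, 45 min RT.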

[15] = biological target: Peptidyl-prolyl cis-trans isomerase NIMA-interacting 1 (Homo sapiens) (UniProt Q13526); experiment: qHTS Validation Assay to Find Inhibitors of Pin1 (AID 504536; active means well fitted inhibition curve with a large enough effect in the polarisation, with a control signal flat, not every such curve was filed as active; inconclusive means small, poorly fitted or top-dose-only effect, or effect the other way; the % refers to the polarisation; further: potency means the concentration at half of the fitted maximal effect); settings: Pin1 fluorescence polarization peptide binding assay
Procedure, shortened: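 Fluorescence polarization competition: compounds (titration) displace HiFluor-488-labeled Pin1-1b peptide from Pin1 (0.3 uM final) in pH 7.5 HEPES buffer with DTT, 10 min at room temperature; %Activity normalized to no-enzyme wells, curves fitted.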

[16] = biological target: Phosphoglycerate kinase, glycosomal (Trypanosoma brucei brucei) (UniProt P07378); experiment: qHTS Validation Assay to Find Inhibitors of Phosphoglycerate Kinase (AID 504547); settings: enzymatic PGK inhibition, coupled luminescence read-out; further: potency means the concentration at half of the fitted maximal effect
Procedure, shortened: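 In TEA buffer (100mM, pH 7.6) containing 5mM MgCl2 and 0.01% Tween-20, the GAPDH-coupled PGK reaction proceeded for 60 minutes at room temperature before a single luminescence reading using Kinase-Glo Plus.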

[17] = biological target: Luciferin 4-monooxygenase (Photinus pyralis) (UniProt P08659); experiment: Biochemical firefly luciferase enzyme assay for NPC (AID 624030); further: potency means the concentration at half of the fitted maximal effect; nearly all actives have a fitted effect of over 70% in size; settings: purified P. pyralis luciferase, luminescence, 5 min
Procedure, shortened: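 Counter-screen for direct inhibition of the luciferase enzyme by approved-drug library compounds, run at 10 nM enzyme in 50 mM Tris acetate (final). Luminescence was read within 5 min of enzyme-buffer addition and normalized to PTC124 versus DMSO (0%).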

[18] = biological target: Arylsulfatase A (Homo sapiens) (UniProt P15289); experiment: qHTS screen for enhancers of Arylsulfatase A (ASA1): LOPAC Validation Assay (AID 720538); settings: ASA enzyme activity, LOPAC qHTS enhancer assay; further: potency means the concentration at half of the fitted maximal effect
Procedure, shortened: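 SV40-transformed skin fibroblasts from an MLD patient (ASA-I179S) were treated with compounds for 48h at 37 degree C, then lysed with 0.5mM pNCS final substrate for 14h at room temperature; NaOH stop, fluorescence read (Ex=525 nm; Em=598 nm).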

CCOP(=S)(CC)Oc1cc(Cl)c(Cl)cc1Cl (stereo not drawn)
inconclusive: activity, negative = inhibition [1] 5.96% | activation [2] -13.3% | Potency [3] 0.0158 µM | Potency [4] 48.6 µM

N#[O+].[C-]#N.[C-]#N.[C-]#N.[C-]#N.[C-]#N.[Fe+2].[Na+].[Na+]
inconclusive: Potency [5] 20 µM | Potency [6] 20 µM | Potency [7] 20 µM | Potency [8] 3.98 µM | Potency [9] 37.9 µM | Potency [10] 18.5 µM | Potency [11] 3.7 µM | Potency [12] 16.8 µM | Potency [13] 18.9 µM | Potency [14] 20 µM | Potency [15] 10.7 µM | Potency [16] 30.1 µM | Potency [17] 28.7 µM | Potency [18] 37.9 µM

From PubChem BioAssay (NCATS)
